Results: PMC7290719
Like-named read-outs stand apart in the source and are kept apart here. Results are given in words; binding and its absence hold for the method and conditions named. Binding seen in cells or lysates may run through a third protein. These calls come from enrichment with a bait or labelling near it, and not all partners need be listed.

Chains of the proteins cited; added tags and fusions are not shown.
UniProt Q9NSY1: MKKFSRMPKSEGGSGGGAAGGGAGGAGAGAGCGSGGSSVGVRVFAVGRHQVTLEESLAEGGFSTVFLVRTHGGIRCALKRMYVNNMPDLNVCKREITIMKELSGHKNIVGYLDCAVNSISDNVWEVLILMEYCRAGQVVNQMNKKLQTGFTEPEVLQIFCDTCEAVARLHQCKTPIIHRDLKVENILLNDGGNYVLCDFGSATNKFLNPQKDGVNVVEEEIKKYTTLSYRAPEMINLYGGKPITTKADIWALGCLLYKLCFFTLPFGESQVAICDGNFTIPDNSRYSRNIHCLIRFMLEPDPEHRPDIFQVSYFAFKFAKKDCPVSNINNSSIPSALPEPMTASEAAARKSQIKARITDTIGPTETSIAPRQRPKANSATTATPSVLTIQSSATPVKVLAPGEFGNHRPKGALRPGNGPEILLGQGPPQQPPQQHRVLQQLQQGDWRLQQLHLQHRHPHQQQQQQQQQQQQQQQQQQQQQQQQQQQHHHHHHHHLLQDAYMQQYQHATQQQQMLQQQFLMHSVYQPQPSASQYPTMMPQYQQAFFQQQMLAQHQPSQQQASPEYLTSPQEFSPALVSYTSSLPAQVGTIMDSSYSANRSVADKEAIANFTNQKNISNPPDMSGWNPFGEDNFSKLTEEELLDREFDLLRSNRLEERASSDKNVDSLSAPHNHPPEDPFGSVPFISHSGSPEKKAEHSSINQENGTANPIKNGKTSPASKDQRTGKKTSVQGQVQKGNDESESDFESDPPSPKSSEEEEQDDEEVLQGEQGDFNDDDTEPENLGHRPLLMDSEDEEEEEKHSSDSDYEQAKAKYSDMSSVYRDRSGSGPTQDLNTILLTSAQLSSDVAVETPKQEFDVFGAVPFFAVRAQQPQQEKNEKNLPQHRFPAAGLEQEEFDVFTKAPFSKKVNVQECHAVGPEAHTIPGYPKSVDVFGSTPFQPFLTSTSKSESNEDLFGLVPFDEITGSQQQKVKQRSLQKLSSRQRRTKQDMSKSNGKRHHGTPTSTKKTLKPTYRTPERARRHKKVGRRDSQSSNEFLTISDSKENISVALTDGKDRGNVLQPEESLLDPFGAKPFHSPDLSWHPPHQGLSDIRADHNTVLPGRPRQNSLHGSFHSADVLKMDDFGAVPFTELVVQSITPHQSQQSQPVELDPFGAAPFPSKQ
UniProt P78559: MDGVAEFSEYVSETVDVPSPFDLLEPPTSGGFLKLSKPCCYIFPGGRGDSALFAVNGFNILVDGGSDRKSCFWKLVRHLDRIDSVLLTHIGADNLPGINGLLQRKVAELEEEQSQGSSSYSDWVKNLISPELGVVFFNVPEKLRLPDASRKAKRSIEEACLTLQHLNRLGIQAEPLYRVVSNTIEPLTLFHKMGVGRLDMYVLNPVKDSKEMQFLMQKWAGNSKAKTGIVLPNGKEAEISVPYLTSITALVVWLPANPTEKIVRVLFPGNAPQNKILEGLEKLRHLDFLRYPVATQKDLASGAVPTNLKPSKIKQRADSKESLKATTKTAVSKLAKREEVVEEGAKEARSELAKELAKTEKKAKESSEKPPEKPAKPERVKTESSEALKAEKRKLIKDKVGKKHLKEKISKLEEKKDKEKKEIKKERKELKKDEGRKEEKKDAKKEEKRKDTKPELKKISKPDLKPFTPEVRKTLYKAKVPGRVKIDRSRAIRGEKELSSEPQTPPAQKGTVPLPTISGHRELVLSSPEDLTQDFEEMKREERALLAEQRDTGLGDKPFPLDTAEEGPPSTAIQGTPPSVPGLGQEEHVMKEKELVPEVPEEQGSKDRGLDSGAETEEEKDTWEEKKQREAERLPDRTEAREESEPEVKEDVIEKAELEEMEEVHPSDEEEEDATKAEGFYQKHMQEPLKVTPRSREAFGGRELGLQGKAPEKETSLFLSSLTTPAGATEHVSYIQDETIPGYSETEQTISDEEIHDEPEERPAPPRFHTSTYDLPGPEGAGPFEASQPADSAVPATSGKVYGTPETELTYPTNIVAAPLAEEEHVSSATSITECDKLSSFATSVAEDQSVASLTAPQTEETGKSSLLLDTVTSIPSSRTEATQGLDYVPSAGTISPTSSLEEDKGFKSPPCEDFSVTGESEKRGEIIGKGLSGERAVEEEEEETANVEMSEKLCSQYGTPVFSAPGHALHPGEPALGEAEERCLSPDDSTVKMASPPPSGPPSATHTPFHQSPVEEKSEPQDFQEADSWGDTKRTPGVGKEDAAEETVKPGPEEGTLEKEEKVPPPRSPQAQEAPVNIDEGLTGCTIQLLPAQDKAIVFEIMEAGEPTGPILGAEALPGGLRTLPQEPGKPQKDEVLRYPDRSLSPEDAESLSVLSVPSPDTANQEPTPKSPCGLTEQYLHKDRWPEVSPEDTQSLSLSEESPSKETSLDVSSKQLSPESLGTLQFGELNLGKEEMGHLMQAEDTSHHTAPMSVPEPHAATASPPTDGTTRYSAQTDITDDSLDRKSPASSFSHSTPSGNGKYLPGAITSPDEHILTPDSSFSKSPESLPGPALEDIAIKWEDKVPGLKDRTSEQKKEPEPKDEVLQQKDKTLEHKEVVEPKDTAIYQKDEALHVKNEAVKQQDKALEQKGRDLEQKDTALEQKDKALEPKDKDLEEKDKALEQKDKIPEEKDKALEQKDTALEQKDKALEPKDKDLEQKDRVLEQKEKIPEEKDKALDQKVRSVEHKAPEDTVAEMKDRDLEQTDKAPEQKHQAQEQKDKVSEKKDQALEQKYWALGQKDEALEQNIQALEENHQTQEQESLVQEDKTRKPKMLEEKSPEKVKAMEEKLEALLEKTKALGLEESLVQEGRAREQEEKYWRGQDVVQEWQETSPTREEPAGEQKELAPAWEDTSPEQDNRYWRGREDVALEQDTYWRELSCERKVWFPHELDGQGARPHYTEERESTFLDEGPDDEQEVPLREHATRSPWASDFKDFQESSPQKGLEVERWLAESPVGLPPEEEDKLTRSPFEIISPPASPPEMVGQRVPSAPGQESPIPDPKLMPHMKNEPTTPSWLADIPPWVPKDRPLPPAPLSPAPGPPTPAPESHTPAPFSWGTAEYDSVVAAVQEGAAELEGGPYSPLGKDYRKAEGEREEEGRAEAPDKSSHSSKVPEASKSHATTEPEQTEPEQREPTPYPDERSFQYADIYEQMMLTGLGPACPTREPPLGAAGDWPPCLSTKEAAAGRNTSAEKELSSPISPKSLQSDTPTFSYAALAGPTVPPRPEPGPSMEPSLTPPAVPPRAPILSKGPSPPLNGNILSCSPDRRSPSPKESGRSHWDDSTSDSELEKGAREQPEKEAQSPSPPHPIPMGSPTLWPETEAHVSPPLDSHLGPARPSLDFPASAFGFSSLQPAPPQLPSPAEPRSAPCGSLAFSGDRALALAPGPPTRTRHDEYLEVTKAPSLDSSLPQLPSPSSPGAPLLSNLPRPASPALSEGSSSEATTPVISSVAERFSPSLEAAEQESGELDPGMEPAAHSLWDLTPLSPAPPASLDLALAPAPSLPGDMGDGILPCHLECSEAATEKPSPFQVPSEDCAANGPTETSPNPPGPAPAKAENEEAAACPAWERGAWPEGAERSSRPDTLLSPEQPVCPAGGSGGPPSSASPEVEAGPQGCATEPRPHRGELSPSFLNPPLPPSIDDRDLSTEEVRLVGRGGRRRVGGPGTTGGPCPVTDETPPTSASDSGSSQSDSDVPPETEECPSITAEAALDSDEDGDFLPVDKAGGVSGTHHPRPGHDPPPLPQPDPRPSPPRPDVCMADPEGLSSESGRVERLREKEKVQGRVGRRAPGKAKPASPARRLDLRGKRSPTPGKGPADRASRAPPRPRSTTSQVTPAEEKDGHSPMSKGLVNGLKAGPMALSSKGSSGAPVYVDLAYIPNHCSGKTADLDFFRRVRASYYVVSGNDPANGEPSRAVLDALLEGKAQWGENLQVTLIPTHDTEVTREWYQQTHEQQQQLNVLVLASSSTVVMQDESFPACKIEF
UniProt P09874: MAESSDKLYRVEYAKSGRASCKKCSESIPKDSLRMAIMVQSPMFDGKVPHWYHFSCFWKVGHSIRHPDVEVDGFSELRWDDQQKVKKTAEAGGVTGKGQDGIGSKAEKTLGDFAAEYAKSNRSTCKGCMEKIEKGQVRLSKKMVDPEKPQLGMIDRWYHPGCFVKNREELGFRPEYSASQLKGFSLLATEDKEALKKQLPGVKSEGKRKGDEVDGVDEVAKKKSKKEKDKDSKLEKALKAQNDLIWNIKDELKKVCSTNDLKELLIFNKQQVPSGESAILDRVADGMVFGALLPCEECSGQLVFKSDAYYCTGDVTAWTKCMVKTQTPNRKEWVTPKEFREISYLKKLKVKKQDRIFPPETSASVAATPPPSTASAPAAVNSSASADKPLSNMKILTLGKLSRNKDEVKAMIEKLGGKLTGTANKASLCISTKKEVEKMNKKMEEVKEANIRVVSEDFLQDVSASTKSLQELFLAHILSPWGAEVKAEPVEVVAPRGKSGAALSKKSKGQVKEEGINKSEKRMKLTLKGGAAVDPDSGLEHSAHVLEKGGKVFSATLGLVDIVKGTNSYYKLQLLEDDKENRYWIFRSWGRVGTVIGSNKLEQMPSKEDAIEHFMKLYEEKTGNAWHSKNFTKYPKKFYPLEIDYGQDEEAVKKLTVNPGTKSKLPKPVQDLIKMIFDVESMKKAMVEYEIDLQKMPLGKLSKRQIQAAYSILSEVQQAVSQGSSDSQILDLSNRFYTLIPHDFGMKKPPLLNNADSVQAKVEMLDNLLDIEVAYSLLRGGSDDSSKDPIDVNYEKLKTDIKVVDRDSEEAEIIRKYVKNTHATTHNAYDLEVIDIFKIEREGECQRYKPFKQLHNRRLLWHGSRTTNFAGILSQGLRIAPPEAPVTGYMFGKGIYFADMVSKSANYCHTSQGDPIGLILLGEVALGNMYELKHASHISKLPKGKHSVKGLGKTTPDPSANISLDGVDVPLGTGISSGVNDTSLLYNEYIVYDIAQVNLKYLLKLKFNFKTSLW
UniProt P08670: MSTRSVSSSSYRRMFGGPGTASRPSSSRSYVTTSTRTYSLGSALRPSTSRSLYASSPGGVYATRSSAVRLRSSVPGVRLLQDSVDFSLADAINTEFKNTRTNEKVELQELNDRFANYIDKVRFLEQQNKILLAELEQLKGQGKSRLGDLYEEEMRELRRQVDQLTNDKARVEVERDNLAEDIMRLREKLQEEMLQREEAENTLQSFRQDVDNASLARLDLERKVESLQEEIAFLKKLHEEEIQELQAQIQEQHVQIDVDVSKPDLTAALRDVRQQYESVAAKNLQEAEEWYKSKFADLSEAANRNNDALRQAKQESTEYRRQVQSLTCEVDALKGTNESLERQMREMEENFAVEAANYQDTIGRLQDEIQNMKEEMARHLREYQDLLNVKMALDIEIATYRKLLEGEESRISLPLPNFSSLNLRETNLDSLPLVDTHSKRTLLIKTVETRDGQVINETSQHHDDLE

What was measured:
[1] = target: T1, SHC adaptor protein 3 (SHC3) (human (endogenous in U-87 MG)) (UniProt Q92529); assay: affinity purification with mass spectrometry; anti-SHC3 monoclonal antibody covalently linked to magnetic beads; RIPA whole cell extracts of U-87 MG maintained under normal and stressed (glucose exhausted) conditions; LC-MS/MS; control antibody against tetanus toxin
T1 sequence: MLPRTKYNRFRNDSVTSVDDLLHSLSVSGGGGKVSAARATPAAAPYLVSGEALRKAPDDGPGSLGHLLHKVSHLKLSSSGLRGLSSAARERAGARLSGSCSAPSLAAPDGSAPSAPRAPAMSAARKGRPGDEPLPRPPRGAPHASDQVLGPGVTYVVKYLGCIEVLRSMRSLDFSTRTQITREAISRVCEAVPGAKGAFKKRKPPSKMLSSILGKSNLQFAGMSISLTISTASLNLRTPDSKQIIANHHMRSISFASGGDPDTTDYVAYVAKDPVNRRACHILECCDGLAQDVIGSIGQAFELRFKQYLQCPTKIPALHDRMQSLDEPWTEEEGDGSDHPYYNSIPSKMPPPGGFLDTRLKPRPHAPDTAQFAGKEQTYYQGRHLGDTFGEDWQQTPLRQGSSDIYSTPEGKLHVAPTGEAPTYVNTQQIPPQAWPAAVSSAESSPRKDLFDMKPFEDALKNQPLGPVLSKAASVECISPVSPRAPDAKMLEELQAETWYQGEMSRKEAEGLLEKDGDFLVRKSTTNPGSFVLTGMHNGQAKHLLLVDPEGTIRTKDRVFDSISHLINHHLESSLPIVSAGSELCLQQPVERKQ

[2] = target: T1, SHC adaptor protein 3 (SHC3) (human (endogenous in U-87 MG)); assay: as above; remark: listed apart in the source

Question: “BMP-2-inducible protein kinase (BMP2K) (from UniProt Q9NSY1 1-1161)” was tested. Which binding [1] did it give?
Answer: binds

Question: How did the binding [1] turn out when “microtubule associated protein 1A (MAP1A) (from UniProt P78559 1-2803)” was run?
Answer: binds

Question: “poly ADP-ribose polymerase 1 (PARP1) (from UniProt P09874 1-1014)” was tested. Which binding [1] did it give?
Answer: binds

Question: Which binding [1] does the source give for vimentin (from UniProt P08670 1-466) here?
Answer: binds

B1: beta subunit of the AP1 complex (protein, UniProt Q10567 1-949)
chain: MTDSKYFTTTKKGEIFELKAELNSDKKEKKKEAVKKVIASMTVGKDVSALFPDVVNCMQTDNLELKKLVYLYLMNYAKSQPDMAIMAVNTFVKDCEDPNPLIRALAVRTMGCIRVDKITEYLCEPLRKCLKDEDPYVRKTAAVCVAKLHDINAQLVEDQGFLDTLKDLISDSNPMVVANAVAALSEIAESHPSSNLLDLNPQSINKLLTALNECTEWGQIFILDCLANYMPKDDREAQSICERVTPRLSHANSAVVLSAVKVLMKFMEMLSKDLDYYGTLLKKLAPPLVTLLSAEPELQYVALRNINLIVQKRPEILKHEMKVFFVKYNDPIYVKLEKLDIMIRLASQANIAQVLAELKEYATEVDVDFVRKAVRAIGRCAIKVEQSAERCVSTLLDLIQTKVNYVVQEAIVVIKDIFRKYPNKYESVIATLCENLDSLDEPEARAAMIWIVGEYAERIDNADELLESFLEGFHDESTQVQLQLLTAIVKLFLKKPTETQELVQQVLSLATQDSDNPDLRDRGYIYWRLLSTDPVAAKEVVLAEKPLISEETDLIEPTLLDELICYIGTLASVYHKPPSAFVEGGRGVVHKSLPPRTASSESAESPETAPTGAPPGEQPDVIPAQGDLLGDLLNLDLGPPVSGPPLATSSVQMGAVDLLGGGLDSLMGDEPEGIGGTNFVAPPTAAVPANLGAPIGSGLSDLFDLTSGVGTLSGSYVAPKAVWLPAMKAKGLEISGTFTRQVGSISMDLQLTNKALQVMTDFAIQFNRNSFGLAPAAPLQVHAPLSPNQTVEISLPLSTVGSVMKMEPLNNLQVAVKNNIDVFYFSTLYPLHILFVEDGKMDRQMFLATWKDIPNENEAQFQIRDCPLNAEAASSKLQSSNIFTVAKRNVEGQDMLYQSLKLTNGIWVLAELRIQPGNPSCTDLELSLKCRAPEVSQHVYQAYETILKN
Question: How did the binding [2] turn out when B1 was run?
Answer: binds
